Source: the supplement of paper PMC10849652
Some of the results follow.

Sequences of proteins named here, by UniProt entry; tags and fusion partners are left off. A change or cut given only in a name is not applied to a line headed by its entry.
UniProt Q9BRL6: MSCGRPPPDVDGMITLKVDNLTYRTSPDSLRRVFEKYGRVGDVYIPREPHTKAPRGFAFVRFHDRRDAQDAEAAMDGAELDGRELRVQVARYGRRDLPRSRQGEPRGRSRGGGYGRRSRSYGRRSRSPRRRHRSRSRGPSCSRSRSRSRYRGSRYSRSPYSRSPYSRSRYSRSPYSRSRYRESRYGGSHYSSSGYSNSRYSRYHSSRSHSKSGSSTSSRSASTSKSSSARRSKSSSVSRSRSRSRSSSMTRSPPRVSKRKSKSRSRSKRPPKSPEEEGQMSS
UniProt O95793: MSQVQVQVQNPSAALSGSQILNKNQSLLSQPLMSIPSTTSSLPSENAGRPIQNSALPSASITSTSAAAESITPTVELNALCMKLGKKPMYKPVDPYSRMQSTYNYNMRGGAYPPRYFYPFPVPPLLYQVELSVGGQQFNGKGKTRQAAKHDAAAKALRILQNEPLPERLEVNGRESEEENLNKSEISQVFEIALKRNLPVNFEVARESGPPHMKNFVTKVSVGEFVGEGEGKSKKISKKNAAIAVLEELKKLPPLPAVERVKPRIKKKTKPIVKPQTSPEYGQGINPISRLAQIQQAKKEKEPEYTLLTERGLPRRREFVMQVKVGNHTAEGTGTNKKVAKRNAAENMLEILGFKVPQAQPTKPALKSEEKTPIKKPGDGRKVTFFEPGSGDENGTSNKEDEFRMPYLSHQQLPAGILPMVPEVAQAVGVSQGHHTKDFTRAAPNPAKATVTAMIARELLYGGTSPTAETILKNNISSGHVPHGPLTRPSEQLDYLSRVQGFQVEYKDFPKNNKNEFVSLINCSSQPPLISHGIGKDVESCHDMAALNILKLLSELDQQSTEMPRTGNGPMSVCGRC
UniProt O43805: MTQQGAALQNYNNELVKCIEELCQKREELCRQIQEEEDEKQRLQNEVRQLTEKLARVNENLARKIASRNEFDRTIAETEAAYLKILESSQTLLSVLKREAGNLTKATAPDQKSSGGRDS
UniProt P51692: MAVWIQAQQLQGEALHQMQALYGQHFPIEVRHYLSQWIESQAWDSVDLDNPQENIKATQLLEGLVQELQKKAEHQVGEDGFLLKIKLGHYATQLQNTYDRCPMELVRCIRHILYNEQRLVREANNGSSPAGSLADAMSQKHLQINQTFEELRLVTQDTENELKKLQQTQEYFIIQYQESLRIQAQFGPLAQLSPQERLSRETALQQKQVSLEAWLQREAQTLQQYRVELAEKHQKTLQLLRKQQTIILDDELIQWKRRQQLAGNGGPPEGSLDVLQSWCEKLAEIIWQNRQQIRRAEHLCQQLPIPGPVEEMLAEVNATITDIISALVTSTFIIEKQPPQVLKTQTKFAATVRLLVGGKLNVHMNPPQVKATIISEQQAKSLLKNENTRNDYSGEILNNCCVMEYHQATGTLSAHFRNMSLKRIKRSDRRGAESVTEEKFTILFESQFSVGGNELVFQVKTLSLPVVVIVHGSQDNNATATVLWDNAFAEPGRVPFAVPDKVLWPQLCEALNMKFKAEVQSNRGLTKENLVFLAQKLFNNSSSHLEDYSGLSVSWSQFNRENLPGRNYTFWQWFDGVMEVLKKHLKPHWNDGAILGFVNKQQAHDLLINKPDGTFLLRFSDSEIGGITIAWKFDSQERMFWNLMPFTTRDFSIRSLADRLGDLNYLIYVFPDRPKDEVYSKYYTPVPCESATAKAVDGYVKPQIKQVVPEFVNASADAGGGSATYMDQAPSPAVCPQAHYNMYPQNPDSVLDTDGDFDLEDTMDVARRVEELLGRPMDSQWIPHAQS
UniProt Q08945, whole entry, looked up: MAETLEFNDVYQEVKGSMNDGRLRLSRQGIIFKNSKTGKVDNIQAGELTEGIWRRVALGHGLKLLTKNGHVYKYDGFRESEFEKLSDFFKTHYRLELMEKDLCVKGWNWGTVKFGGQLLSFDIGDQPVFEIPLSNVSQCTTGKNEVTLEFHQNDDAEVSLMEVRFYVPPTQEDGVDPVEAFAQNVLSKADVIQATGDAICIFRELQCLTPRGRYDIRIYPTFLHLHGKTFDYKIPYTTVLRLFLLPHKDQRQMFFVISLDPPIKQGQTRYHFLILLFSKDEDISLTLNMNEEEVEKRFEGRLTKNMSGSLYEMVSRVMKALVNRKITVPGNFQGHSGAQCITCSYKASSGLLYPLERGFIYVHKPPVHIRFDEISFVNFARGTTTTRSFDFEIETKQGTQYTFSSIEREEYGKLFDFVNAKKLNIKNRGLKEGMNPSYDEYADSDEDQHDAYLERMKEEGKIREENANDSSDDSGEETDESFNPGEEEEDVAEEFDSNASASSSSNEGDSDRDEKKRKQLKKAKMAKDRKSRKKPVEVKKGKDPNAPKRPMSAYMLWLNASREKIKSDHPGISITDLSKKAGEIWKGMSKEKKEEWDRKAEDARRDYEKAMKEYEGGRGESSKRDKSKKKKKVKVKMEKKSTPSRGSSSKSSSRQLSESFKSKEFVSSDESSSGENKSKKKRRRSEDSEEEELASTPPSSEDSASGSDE
UniProt Q01130: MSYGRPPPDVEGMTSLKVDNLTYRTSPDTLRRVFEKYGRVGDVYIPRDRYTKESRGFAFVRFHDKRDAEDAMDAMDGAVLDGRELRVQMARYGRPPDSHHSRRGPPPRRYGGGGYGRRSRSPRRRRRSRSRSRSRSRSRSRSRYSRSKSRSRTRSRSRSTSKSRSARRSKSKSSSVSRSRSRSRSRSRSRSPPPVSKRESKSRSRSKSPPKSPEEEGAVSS
UniProt P11277, whole entry, looked up: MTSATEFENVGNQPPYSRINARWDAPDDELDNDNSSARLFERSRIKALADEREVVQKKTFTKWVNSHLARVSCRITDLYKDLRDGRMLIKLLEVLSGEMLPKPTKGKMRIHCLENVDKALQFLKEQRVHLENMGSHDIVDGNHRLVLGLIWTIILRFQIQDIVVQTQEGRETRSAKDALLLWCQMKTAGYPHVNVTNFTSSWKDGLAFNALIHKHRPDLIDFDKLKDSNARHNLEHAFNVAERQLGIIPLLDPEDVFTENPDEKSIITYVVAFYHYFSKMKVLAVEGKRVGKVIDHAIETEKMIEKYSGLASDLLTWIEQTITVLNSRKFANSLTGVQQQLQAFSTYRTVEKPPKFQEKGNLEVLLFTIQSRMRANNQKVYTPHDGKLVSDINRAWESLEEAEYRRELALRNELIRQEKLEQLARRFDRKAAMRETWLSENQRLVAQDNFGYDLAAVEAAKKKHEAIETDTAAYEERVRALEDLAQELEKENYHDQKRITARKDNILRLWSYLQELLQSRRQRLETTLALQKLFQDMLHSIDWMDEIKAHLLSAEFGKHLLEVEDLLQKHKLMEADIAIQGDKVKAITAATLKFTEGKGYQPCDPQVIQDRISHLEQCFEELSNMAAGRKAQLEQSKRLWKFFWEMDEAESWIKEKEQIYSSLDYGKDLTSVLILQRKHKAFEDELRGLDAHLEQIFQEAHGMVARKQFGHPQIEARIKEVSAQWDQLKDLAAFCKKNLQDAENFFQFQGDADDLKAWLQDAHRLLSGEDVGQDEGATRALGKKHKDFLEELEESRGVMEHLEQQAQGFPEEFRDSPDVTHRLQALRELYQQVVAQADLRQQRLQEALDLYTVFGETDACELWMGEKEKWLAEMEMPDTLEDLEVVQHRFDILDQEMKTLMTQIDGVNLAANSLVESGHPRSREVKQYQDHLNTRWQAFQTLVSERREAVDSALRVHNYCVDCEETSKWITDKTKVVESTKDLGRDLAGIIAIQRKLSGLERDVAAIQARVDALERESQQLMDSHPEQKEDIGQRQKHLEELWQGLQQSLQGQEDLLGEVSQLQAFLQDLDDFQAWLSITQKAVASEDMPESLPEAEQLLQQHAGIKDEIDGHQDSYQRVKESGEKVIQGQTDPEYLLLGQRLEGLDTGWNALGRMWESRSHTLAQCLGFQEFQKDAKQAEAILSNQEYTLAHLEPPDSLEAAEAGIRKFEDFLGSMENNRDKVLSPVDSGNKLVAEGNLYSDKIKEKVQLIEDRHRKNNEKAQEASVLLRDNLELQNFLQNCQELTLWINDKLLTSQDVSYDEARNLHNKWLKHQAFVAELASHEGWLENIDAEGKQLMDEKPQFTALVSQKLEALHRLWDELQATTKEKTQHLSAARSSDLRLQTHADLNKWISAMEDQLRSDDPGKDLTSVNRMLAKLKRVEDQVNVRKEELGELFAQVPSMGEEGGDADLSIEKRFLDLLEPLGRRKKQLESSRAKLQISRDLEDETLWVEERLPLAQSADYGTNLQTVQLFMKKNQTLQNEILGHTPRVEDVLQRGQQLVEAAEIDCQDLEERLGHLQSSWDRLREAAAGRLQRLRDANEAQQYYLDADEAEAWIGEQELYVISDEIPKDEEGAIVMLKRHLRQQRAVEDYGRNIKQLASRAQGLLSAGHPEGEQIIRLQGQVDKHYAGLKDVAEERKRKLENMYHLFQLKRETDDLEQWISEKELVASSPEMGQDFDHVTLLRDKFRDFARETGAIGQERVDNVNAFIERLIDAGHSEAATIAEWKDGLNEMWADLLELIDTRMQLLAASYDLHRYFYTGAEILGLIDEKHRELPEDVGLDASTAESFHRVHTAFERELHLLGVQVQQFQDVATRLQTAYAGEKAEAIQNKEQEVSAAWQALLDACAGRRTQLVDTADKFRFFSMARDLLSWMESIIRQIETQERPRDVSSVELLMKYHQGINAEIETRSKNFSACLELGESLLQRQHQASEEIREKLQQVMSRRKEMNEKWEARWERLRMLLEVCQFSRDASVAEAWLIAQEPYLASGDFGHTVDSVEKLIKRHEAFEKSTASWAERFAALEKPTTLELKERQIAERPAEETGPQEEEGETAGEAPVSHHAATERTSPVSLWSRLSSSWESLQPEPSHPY
UniProt O76061, whole entry, looked up: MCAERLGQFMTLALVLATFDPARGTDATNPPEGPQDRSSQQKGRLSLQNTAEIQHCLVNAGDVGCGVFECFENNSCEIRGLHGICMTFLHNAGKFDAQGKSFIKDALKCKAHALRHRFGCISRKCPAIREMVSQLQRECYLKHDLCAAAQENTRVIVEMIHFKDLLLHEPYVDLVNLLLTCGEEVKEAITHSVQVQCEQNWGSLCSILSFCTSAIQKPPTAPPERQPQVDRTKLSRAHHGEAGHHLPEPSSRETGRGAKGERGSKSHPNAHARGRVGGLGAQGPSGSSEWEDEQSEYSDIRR
UniProt Q9HD15: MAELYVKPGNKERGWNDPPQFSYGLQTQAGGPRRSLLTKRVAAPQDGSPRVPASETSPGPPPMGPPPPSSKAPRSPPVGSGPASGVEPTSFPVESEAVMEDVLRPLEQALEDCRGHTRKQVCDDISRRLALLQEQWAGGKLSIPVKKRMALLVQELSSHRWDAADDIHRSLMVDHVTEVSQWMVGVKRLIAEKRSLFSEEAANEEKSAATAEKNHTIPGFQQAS
UniProt Q9H2V7: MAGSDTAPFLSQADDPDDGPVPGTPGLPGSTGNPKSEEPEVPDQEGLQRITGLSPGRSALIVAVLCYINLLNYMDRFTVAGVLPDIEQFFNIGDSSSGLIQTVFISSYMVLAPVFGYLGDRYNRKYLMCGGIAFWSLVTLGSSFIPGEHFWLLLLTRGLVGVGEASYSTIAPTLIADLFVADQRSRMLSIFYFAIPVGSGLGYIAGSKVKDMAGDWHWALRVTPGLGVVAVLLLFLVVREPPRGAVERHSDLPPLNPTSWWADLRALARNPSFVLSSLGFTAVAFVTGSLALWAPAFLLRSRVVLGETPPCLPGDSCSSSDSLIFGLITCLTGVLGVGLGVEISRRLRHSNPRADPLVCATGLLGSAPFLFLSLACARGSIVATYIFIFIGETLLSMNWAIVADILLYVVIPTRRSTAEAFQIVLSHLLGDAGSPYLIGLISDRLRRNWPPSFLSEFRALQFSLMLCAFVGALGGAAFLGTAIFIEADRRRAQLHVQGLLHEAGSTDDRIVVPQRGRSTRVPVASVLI
UniProt Q13242, whole entry, looked up: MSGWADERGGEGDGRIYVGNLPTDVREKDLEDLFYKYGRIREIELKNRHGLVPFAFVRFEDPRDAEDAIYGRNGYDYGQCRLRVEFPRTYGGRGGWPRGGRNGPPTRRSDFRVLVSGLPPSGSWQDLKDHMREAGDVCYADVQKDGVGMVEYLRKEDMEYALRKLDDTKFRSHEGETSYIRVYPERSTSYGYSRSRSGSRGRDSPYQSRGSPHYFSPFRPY
UniProt O15269: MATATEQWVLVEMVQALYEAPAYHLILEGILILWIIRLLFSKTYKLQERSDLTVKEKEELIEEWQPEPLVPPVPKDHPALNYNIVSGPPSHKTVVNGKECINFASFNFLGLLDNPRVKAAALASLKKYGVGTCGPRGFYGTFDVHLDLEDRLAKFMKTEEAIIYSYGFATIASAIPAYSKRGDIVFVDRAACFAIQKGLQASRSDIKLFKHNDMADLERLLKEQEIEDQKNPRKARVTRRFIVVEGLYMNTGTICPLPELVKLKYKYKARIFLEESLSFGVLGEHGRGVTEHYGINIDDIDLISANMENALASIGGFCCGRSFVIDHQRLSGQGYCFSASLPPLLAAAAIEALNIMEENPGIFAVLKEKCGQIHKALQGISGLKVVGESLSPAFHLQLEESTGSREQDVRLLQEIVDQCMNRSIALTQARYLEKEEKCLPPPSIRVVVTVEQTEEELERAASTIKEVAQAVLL

Legend:
Experiment in all cases: log2 fold change, soluble protein after heating vs DMSO (PISA); higher = thermal stabilisation; K562 lysate, 10 uM; active = over 0.2 and 3.5 SD of the protein, either way, in both replicates (recomputed)
[1] = compound: Cc1cn(-c2cc(NC(=O)c3ccc(C)c(Nc4nccc(-c5cccnc5)n4)c3)cc(C(F)(F)F)c2)cn1 [nilotinib]
In short: (§1)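 The values are log-two fold changes in thermal stability compared with solvent controls and come from duplicates. They were obtained by TMTpro 16plex LC-MS/MS, with channel sums equalised, on the supernatant after 21,000xg for 90 min. That supernatant came from crude K562 extract at 1 mg/mL protein treated with 10 μM compound for 30 min, heated for 3 min across 48°C-58°C, pooled and brought to 0.5% NP-40 at 4°C.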

[2] = compound: Cc1nc(Nc2n[nH]c3c2CN(C(=O)N[C@H](CN(C)C)c2ccccc2)C3(C)C)c2sccc2n1
In short: as §1

[3] = compound: Cc1nc(Nc2ncc(C(=O)Nc3c(C)cccc3Cl)s2)cc(N2CCN(CCO)CC2)n1 [dasatinib]
In short: as §1

[4] = compound: Cc1ncc(-c2ccnc(Nc3ccc(S(C)(=O)=O)cc3)n2)n1C(C)C
In short: as §1

[5] = compound: Cn1cc(-c2ccc3c(c2)CCN3C(=O)Cc2cccc(C(F)(F)F)c2)c2c(N)ncnc21
In short: as §1

[6] = compound: Cn1cc(CNCC2CCN(c3ncc(C(=O)NO)cn3)CC2)c2ccccc21 [quisinostat]
In short: as §1

[7] = compound: Cn1cncc1[C@@](N)(c1ccc(Cl)cc1)c1ccc2c(c1)c(-c1cccc(Cl)c1)cc(=O)n2C [tipifarnib]
In short: as §1

[8] = compound: NC(=O)Nc1cc(-c2cccc(F)c2)sc1C(=O)N[C@H]1CCCNC1
In short: as §1

[9] = compound: NC(=O)c1cnc(N[C@@H]2CCCC[C@@H]2N)nc1Nc1cccc(-n2nccn2)c1
In short: as §1

[10] = compound: NC1(c2ccc(-c3nc4ccn5c(=O)[nH]nc5c4cc3-c3ccccc3)cc2)CCC1
In short: as §1

[11] = compound: NCC(=O)Nc1ccc(-n2nc(C(F)(F)F)cc2-c2ccc3c(ccc4ccccc43)c2)cc1
In short: as §1

[12] = compound: O=C(CCCCCCC(=O)Nc1ccccc1)NO [vorinostat]
In short: as §1

[13] = compound: O=C(O)c1ccc2c(c1)nc(Nc1cccc(Cl)c1)c1ccncc12 [silmitasertib]
In short: as §1

[14] = compound: O=C1NC(=O)C(c2cnc3ccccn23)=C1c1cn2c3c(cc(F)cc13)CN(C(=O)N1CCCCC1)CC2
In short: as §1

[15] = compound: c1cn2cc(-c3ccc4cn[nH]c4c3)nc(Nc3ccc(N4CCOCC4)cc3)c2n1 [entospletinib]
In short: as §1

Target | log2 fold change [1] | log2 fold change [2] | log2 fold change [3] | log2 fold change [4] | log2 fold change [5] | log2 fold change [6] | log2 fold change [7] | log2 fold change [8] | log2 fold change [9] | log2 fold change [10] | log2 fold change [11] | log2 fold change [12] | log2 fold change [13] | log2 fold change [14] | log2 fold change [15]
SRPK1 (UniProt Q96SB4) | inactive: -0.002 | inactive: 0.069 | inactive: -0.01 | inactive: -0.03 | inactive: 0.017 | inactive: -0.108 | inactive: -0.03 | active: 0.283 | inactive: -0.021 | inactive: -0.069 | inactive: -0.043 | inactive: -0.172 | inactive: 0.119 | inactive: 0 | inactive: 0.012
SRSF8 (UniProt Q9BRL6) | inactive: 0 | inactive: 0.031 | inactive: 0.022 | inactive: 0.018 | inactive: 0.026 | inactive: 0.02 | inactive: -0.006 | inactive: -0.012 | inactive: 0.01 | inactive: 0.003 | inactive: 0 | inactive: 0.14 | inactive: 0.008 | inactive: -0.022 | inactive: -0.015
STAU1 (UniProt O95793) | inactive: -0.008 | inactive: -0.024 | inactive: -0.004 | inactive: -0.002 | inactive: 0.007 | inactive: 0.003 | inactive: -0.009 | inactive: 0.037 | inactive: 0.001 | inactive: 0.005 | inactive: 0.045 | inactive: -0.035 | inactive: 0.017 | inactive: -0.009 | inactive: 0.009
SPECC1L (UniProt Q69YQ0) | inactive: -0.011 | inactive: -0.038 | inactive: -0.007 | inactive: 0.009 | inactive: -0.023 | inactive: -0.007 | inactive: 0 | inactive: -0.002 | inactive: 0.008 | inactive: -0.007 | inactive: -0.016 | inactive: 0.099 | inactive: -0.023 | inactive: 0.011 | inactive: 0.005
SSNA1 (UniProt O43805) | inactive: -0.038 | inactive: 0.057 | inactive: -0.004 | inactive: -0.004 | inactive: -0.079 | inactive: 0.081 | inactive: 0.007 | inactive: -0.039 | inactive: 0.006 | inactive: 0.019 | inactive: -0.036 | active: -0.34 | inactive: 0 | inactive: -0.023 | inactive: -0.065
STAT5A (UniProt P42229) | inactive: -0.004 | inactive: -0.024 | inactive: -0.04 | inactive: 0 | inactive: 0.034 | inactive: -0.007 | inactive: -0.017 | inactive: 0.028 | inactive: 0.032 | inactive: -0.005 | inactive: 0.026 | inactive: -0.106 | inactive: 0.013 | inactive: 0.022 | inactive: 0.025
SPRYD7 (UniProt Q5W111) | inactive: -0.013 | inactive: 0.055 | inactive: -0.119 | inactive: -0.023 | inactive: -0.007 | inactive: 0.047 | inactive: 0.039 | inactive: 0.034 | inactive: 0.001 | inactive: -0.039 | inactive: -0.018 | inactive: 0.062 | inactive: -0.024 | inactive: -0.029 | inactive: -0.025
STAT5B (UniProt P51692) | inactive: -0.005 | inactive: -0.037 | inactive: 0.047 | inactive: -0.004 | inactive: 0.009 | inactive: -0.038 | inactive: -0.008 | inactive: 0.042 | inactive: -0.021 | inactive: 0.021 | inactive: 0.014 | inactive: -0.237 | inactive: 0.004 | inactive: 0.038 | inactive: 0.002
SSRP1 (UniProt Q08945) | inactive: 0.045 | inactive: -0.004 | inactive: -0.002 | inactive: -0.006 | inactive: 0.028 | inactive: 0.013 | inactive: -0.03 | inactive: 0.018 | inactive: 0 | inactive: 0.025 | inactive: 0.014 | inactive: 0.063 | inactive: 0.014 | inactive: -0.046 | inactive: 0.002
SRSF2 (UniProt Q01130) | inactive: -0.038 | inactive: 0 | inactive: -0.003 | inactive: -0.029 | inactive: 0.033 | inactive: -0.056 | inactive: 0.01 | inactive: 0.002 | inactive: -0.008 | inactive: -0.01 | inactive: 0.023 | inactive: 0.087 | inactive: -0.017 | inactive: -0.043 | inactive: -0.055
SPTB isoform 2 (UniProt P11277) | inactive: -0.012 | inactive: -0.001 | inactive: -0.092 | inactive: 0.045 | inactive: 0.048 | inactive: -0.004 | inactive: -0.014 | inactive: 0.024 | inactive: 0.008 | inactive: -0.057 | inactive: 0.002 | inactive: -0.012 | inactive: 0.031 | inactive: -0.008 | inactive: 0.02
STC2 (UniProt O76061) | inactive: 0.062 | inactive: -0.089 | inactive: -0.033 | inactive: -0.036 | inactive: 0.127 | inactive: 0.055 | inactive: 0.071 | inactive: -0.034 | inactive: -0.28 | inactive: -0.06 | inactive: -0.057 | inactive: 0 | inactive: 0.095 | inactive: -0.054 | inactive: 0.128
SRA1 (UniProt Q9HD15) | inactive: 0.005 | inactive: -0.014 | inactive: 0.068 | inactive: -0.001 | inactive: -0.043 | inactive: -0.032 | inactive: 0.022 | inactive: 0.009 | inactive: -0.017 | inactive: 0.02 | inactive: -0.005 | inactive: 0.112 | inactive: 0.007 | inactive: -0.002 | inactive: -0.003
SPNS1 (UniProt Q9H2V7) | inactive: 0.04 | inactive: -0.025 | inactive: 0 | inactive: -0.017 | inactive: 0.028 | inactive: -0.039 | inactive: 0.069 | inactive: -0.032 | inactive: 0.013 | inactive: -0.005 | inactive: 0.086 | inactive: -0.022 | inactive: 0.033 | inactive: -0.025 | inactive: -0.045
SRSF9 (UniProt Q13242) | inactive: 0.02 | inactive: 0.01 | inactive: -0.079 | inactive: 0.02 | inactive: -0.005 | inactive: 0.008 | inactive: 0.047 | inactive: -0.012 | inactive: 0.029 | inactive: -0.002 | inactive: -0.182 | inactive: -0.113 | inactive: 0.069 | inactive: -0.035 | inactive: 0.007
SPTBN1 (UniProt Q01082) | inactive: 0.002 | inactive: -0.008 | inactive: 0.013 | inactive: 0.008 | inactive: 0.006 | inactive: -0.014 | inactive: -0.006 | inactive: 0.013 | inactive: 0 | inactive: -0.021 | inactive: -0.014 | inactive: 0.026 | inactive: 0.001 | inactive: -0.006 | inactive: 0.022
STARD7 (UniProt Q9NQZ5) | inactive: 0.007 | inactive: 0.058 | inactive: 0.048 | inactive: 0.022 | inactive: -0.054 | inactive: -0.104 | inactive: 0.013 | inactive: 0 | inactive: 0.029 | inactive: -0.018 | inactive: 0.048 | inactive: 0.116 | inactive: 0.014 | inactive: 0.041 | inactive: 0.012
SPTLC1 (UniProt O15269) | inactive: -0.007 | inactive: 0.009 | inactive: -0.007 | inactive: 0.026 | inactive: -0.009 | inactive: -0.071 | inactive: -0.013 | inactive: -0.012 | inactive: 0.035 | inactive: 0.011 | inactive: -0.042 | inactive: 0.119 | inactive: 0.012 | inactive: 0.021 | inactive: 0.02
SPG7 (UniProt Q9UQ90) | inactive: -0.004 | inactive: -0.065 | inactive: -0.098 | inactive: 0.023 | inactive: 0.015 | inactive: 0.08 | inactive: -0.158 | inactive: 0.054 | inactive: -0.118 | inactive: -0.027 | inactive: -0.072 | inactive: -0.066 | inactive: 0.109 | inactive: -0.079 | inactive: -0.005

Single values from the list.
SPTBN1 (UniProt Q01082) – log2 fold change [10]: inactive: -0.021
STAU1 (UniProt O95793) – log2 fold change [6]: inactive: 0.003
